# PubChem BioAssay AID588497 (NMMLSC, 2011)
# Screen size: about 360,000 compounds; about 780 (0.22%) were called active. The shares of active, inactive and inconclusive entries below differ from those in the screen. Rule as the data show it: active = inhibition above about 35% (passing the limit was not always enough); inconclusive = no clear call, values can overlap the other calls.
# Tested on: Botulinum neurotoxin type F light chain protease (Clostridium botulinum)
# Experiment: BoNT/F light chain protease inhibitors, primary screen, biochemical, flow cytometry, MLPCN library (AID 588497); also: plate controls were buffer without enzyme for full effect and enzyme alone for no effect
# Details: Multiplex microsphere protease cleavage assay, at 10 µM, hits give high values
row,Structure (SMILES),inhibition
1,CCOC(=O)c1c(CS(=O)(=O)c2ccccc2)n(C)c2cc(Br)c(O)cc12,inconclusive: -13.6%
2,CCN(CC)c1ccc(C=Nc2cccnc2Cl)c(O)c1,inactive: -28.1%
3,O=C(CSC1=NNC(c2ccccn2)S1)Nc1cccc(Cl)c1 (centres undefined),inconclusive: 6.9%
4,CC1(C)CC(=O)C2=C(C1)OC(N)=C(C#N)C2c1ccc2c(c1)OCO2 (centres undefined),inconclusive: -6.2%
5,NC(=O)N\N=C/C=C/C=C/c1ccc(F)cc1,inconclusive: -5%
6,Cc1nn(-c2ccc(Cl)cc2)c(=O)c2c(C)noc12,inconclusive: -22.2%
7,Cn1c(/C=C/c2cccc([N+](=O)[O-])c2)c([N+](=O)[O-])c(=O)n(C)c1=O,inconclusive: 53.9%
8,O=C(NCCCN1CCOCC1)c1cccs1,inactive: 5.4%
9,Cc1ccc2ccccc2c1C(O)c1ncc(-c2cccc(C(F)(F)F)c2)[nH]1 (centres undefined),inactive: -10.6%
10,CCOc1ccc(NC(=O)CN(c2ccc(OC)c(OC)c2)S(=O)(=O)c2ccc(C)cc2)cc1,inconclusive: -52.9%
11,COc1ccc(C(C)=O)cc1COC(=O)c1cccc(N(C)C)c1,active: 39.2%
12,COC(=O)C(C)Oc1cc(C)cc2oc(=O)c3c(c12)CCC3 (centres undefined),inactive: -1.5%
13,CCOC(=O)C1(C)CCCN(C(=O)c2cccc(C#N)c2)C1 (centres undefined),inactive: 2.5%
14,COc1ccc(C2C3=C(CCCC3=O)Nc3c(-c4ccccc4)c(C)nn32)cc1 (centres undefined),inactive: -4%
15,O=c1[nH]n(Cc2ccccc2)c2ccccc12,inconclusive: -43%
16,CCOC(=O)N1CCN(C(=O)c2cccc(-n3c(=S)[nH]c4cc(Cl)ccc4c3=O)c2)CC1,inactive: -3.6%
17,NC(=O)c1ccc(Br)c(S(=O)(=O)N2CCCCC2)c1,active: 42.1%
18,Cc1cc(=O)oc2ccc(OCC(=O)N3CCC(C)CC3)cc12,inconclusive: -1.2%
19,Clc1ccc(-c2nnc3n2CCCC3)cc1,inactive: -1.4%
20,O=C(NCc1ccco1)c1ccc([N+](=O)[O-])cc1Cl,inconclusive: -17.5%
21,Cn1c(=O)c(NCCc2ccccc2)c2c3c(cccc31)C(=O)c1ccccc1-2,active: 40.7%
22,Cc1ccc(NC(=O)Cn2nnc(C(=O)NCc3ccc4c(c3)OCO4)c2N)cc1,inactive: 4.3%
23,CC(C(=O)Nc1nc(-c2ccc(F)c(F)c2)cs1)N1C(=O)C2CC=CCC2C1=O (centres undefined),inconclusive: -8.7%

# Three successive compounds out of the list so far, quoted:
row,Structure (SMILES),inhibition
16,CCOC(=O)N1CCN(C(=O)c2cccc(-n3c(=S)[nH]c4cc(Cl)ccc4c3=O)c2)CC1,inactive: -3.6%
17,NC(=O)c1ccc(Br)c(S(=O)(=O)N2CCCCC2)c1,active: 42.1%
18,Cc1cc(=O)oc2ccc(OCC(=O)N3CCC(C)CC3)cc12,inconclusive: -1.2%

# As entered above.
# Under inhibition, CCOc1ccc(NC(=O)CN(c2ccc(OC)c(OC)c2)S(=O)(=O)c2ccc(C)cc2)cc1 reads inconclusive: -52.9%
# Under inhibition, CCN(CC)c1ccc(C=Nc2cccnc2Cl)c(O)c1 reads inactive: -28.1%
# Under inhibition, CCOC(=O)C1(C)CCCN(C(=O)c2cccc(C#N)c2)C1 (centres undefined) reads inactive: 2.5%

# Remaining list, next part.

row,Structure (SMILES),inhibition
1,COc1ccc(C(=O)Nc2ccc(C3(C#N)CCCC3)cc2)cc1OC,inconclusive: -1.9%
2,Cc1ccc(S(=O)(=O)Nc2c(C)n(C)n(-c3ccccc3)c2=O)c(C)c1,inconclusive: 1.9%
3,COc1ccc(C2C(C(C)=O)=C(O)C(=O)N2c2ccc(Br)cc2)cc1 (centres undefined),inconclusive: -50.7%
4,O=C1CN(C(=O)c2ccccc2F)C(c2ccc(F)cc2)c2cc(F)ccc2N1 (centres undefined),inconclusive: -8.6%
5,NC(=O)C1CCN(C(=O)CN2C(=O)c3ccccc3S2(=O)=O)CC1,inactive: 3.3%
6,CCCCn1c(O)c(C(C)=Nc2cccc(C(=O)O)c2)c(=O)[nH]c1=O,inactive: 0%
7,COc1ccc(CCNc2ccncn2)cc1,inactive: 1.5%
8,CCOC(=O)CCCc1ccc(/C(C)=N/NC(N)=S)cc1,inconclusive: -94.7%
9,CN(CC(=O)Nc1ccc(Cl)c(C(F)(F)F)c1)C(=O)CCCNC(=O)c1ccc(Cl)cc1,inconclusive: 8.2%
10,O=c1cc(C(F)(F)F)[nH]c2c(OC(F)(F)F)cccc12,inconclusive: -3.4%
11,CN(C)c1nc(N)nc(CSc2nnnn2-c2ccc(F)cc2)n1,inactive: 2.3%
12,COc1cc(C(=O)Nn2c(CC(C)C)nc3ccccc3c2=O)cc(OC)c1OC,inconclusive: 69%
13,O=C(CSc1nnc(-c2ccncc2)o1)Nc1ccccc1Cl,inconclusive: -13.8%
14,COc1ccccc1N1C(N)=NC(N)=NC12CCCCC2,inconclusive: -21.3%
15,Cn1c(=O)c2c(Nc3ccc(F)cc3)cc(=O)n(-c3ccccc3)c2n(C)c1=O,inactive: -2.6%
16,Cc1ccc(C)c(N(CC(=O)NC(C)C)C(=O)CCC(=O)Nc2ccccn2)c1,inconclusive: 6.6%
17,Cc1oc(CSCCSCc2cc(C(=O)O)c(C)o2)cc1C(=O)O,inconclusive: 14.9%
18,CCOc1ccc(NC(=O)c2cc3ccccc3cc2OC)cc1,inconclusive: -27.8%
19,CCNC(=S)N(CCN(CC)CC)Cc1cc2cc3c(cc2[nH]c1=O)OCO3,inconclusive: 27.9%
20,Clc1ccc(OCc2nnc(SCCN3CCCCC3)n2Cc2ccco2)cc1,inconclusive: -3.9%
21,O=C(Cc1cccs1)Nc1ccc([N+](=O)[O-])cc1,inconclusive: -30.7%
22,O=Cc1cc(-c2ccccc2)[nH]c1-c1ccccc1,inconclusive: 40.4%
23,N#Cc1ccc(COC(=O)c2ccc3c(=O)[nH]c(CN4CCOCC4)nc3c2)cc1,inactive: -0.2%

row,Structure (SMILES),inhibition
1,CCOC(=O)C(O)(NC(=O)c1cccnc1)C(F)(F)F (centres undefined),inconclusive: -8%
2,Cc1ccccc1S(=O)(=O)N1CCN(C)CC1,inconclusive: -4.3%
3,Cc1ccc(NC(=O)Nc2nnc(-c3ccncc3)s2)cc1C,inactive: -7.1%
4,COCCN1C2=C(C(=O)CC(C)(C)C2)C(c2ccc(OC)c(OC)c2)C2=C1CC(C)(C)CC2=O,inconclusive: -28%
5,CC(C)(C)OC(=O)N1CCC[C@H]1c1nnc(SCC(=O)Nc2ccc(Br)cc2)o1,inconclusive: 14.5%
6,COc1ccc(-n2c(N)c(C(=O)Nc3c(C)n(C)n(-c4ccccc4)c3=O)c3nc4ccccc4nc32)cc1,inconclusive: -12.8%
7,S=C1SCN(Cc2cccnc2)CN1Cc1cccnc1,inconclusive: 77.8%
8,O=C(Nc1cccc2[nH]ncc12)NS(=O)(=O)c1ccccc1,inactive: -30.5%
9,CN(C)/C=C1\SC(=S)N(c2ccc(Br)cc2)C1=O,inconclusive: -102%
10,COC(=O)c1cccc(NC(=O)NC(=O)c2ccccc2Cl)c1,inconclusive: 9.9%
11,Cc1ccc(-n2nnnc2SCn2nnc3ccccc3c2=O)cc1,inactive: 5.9%
12,CC1Cc2ccccc2N1C(=O)CSc1nnc(-c2ccccc2)c(-c2ccccc2)n1 (centres undefined),inconclusive: -3.6%
13,Cc1ccc2nc(N(CCCN(C)C)C(=O)c3ccc4c(c3)CCCC4)sc2c1,inactive: -14.2%
14,COc1ccc(NC(=O)CCNC(=O)Cn2cnc3ccccc3c2=O)c(OC)c1,inconclusive: 4.1%
15,COc1ccccc1Cn1c(C(C)C)nc2ccccc21,inconclusive: 11.6%
16,CCOC(=O)COn1c(SCC(=O)OCC)nc2ccccc2c1=O,inconclusive: -10.9%
17,COc1ccc(OC)c(S(=O)(=O)Nc2c(C)n(C)n(-c3ccccc3)c2=O)c1,inconclusive: 34.3%
18,CC(=O)OCC1=C(C(=O)O)N2C(=O)C(NC(=O)c3ccc(COc4cccc(Cl)c4Cl)o3)C2SC1 (centres undefined),inactive: 5.2%
19,COc1cc(/C=N/NC(=S)NC2CC3CCC2C3)ccc1O (centres undefined),inconclusive: -14.3%
20,COc1ccc(OC)c(Nc2nc(NCCCN(C)C)nc(N)c2[N+](=O)[O-])c1,inconclusive: 0.4%
21,O[C@@H]1CN(Cc2ccc(-n3cccn3)cc2)CC[C@H]1N1CCN(c2ccccc2F)CC1,inconclusive: 10.5%
22,CN(C)CCOC(=O)CCCCCCCCC(=O)OCCN(C)C,inconclusive: -27.1%
23,C=CCn1c(SCc2ccccc2Cl)nnc1-c1sc2nc(C)cc(C)c2c1N,inconclusive: 37.5%

row,Structure (SMILES),inhibition
1,COC(=O)c1ccc(COc2ccccc2/C=N/O)o1,inconclusive: 47.6%
2,CC(=O)O/N=C(\N)c1ccc(-c2csnn2)cc1,inconclusive: 54.4%
3,Cc1cc(NC(=O)C2CCCCC2C(=O)O)no1 (centres undefined),inconclusive: -34%
4,COc1ccccc1-c1coc2cc(OC(=O)N3CCOCC3)ccc2c1=O,inconclusive: 39.5%
5,COCCN(C(=O)c1ccccc1F)c1nc(-c2ccc(OC)cc2)cs1,inconclusive: -22.5%
6,COc1ccc(Nc2nc(-c3c[nH]c4ccccc34)cs2)cc1,inconclusive: -61.2%
7,Cc1cc(SCC(=O)Nc2ccccc2)nc(C)n1,inactive: -6.5%
8,N#Cc1ccc(C(=O)Nc2cc(S(=O)(=O)N3CCOCC3)ccc2N2CCCC2)cc1,inconclusive: -56.6%
9,Fc1ccccc1NC(=S)NCCc1ccccc1,inconclusive: -65.1%
10,Oc1cccc(Nc2nc(N3CCOCC3)nc(N3CCOCC3)n2)c1,inconclusive: -31.7%
11,CCN(CC(=O)NC1CCS(=O)(=O)C1)S(=O)(=O)c1ccc(Br)cc1 (centres undefined),inactive: 2.4%
12,COc1ccc2nc(C)cc(SCC(=O)Nc3c(C)cccc3C)c2c1,inactive: -5.7%
13,C=CC[C@@H](CC(=O)NCCO)C(=O)N[C@@H](C)COC(=O)[C@H](CC=C)CC(=O)OC(C)(C)C,inactive: 11.5%
14,COC(=O)C(Cc1c[nH]c2ccccc12)NC(=O)c1ccccc1Br (centres undefined),inconclusive: -45.1%
15,Cc1csc(=O)n1CCC(=O)OCC(=O)c1ccc(Br)cc1,inactive: -0.8%
16,CCCCn1c(N)c(N(CCOC)C(=O)COC(=O)COc2cc(C)ccc2Cl)c(=O)[nH]c1=O,inconclusive: 16.9%
17,Cc1ccc(NC(=O)CN2CCN(C)CC2)cc1S(=O)(=O)N1CCOCC1,inconclusive: 1.8%
18,Cc1cc(OC(=O)c2ccccc2Cl)cc(=O)n1C,inconclusive: -11.5%
19,COc1cc(OC)cc(-c2c(C#Cc3ccsc3)c3cc(-c4ccc5c(c4)OCCO5)ccc3n2C)c1,inactive: -0.8%
20,Cc1ccc(-n2c(O)c(C=NCc3ccccn3)c(=O)[nH]c2=S)cc1,inconclusive: 12.7%
